This passage reports binding results from publication PMC5286394, “Architecture of the yeast Elongator complex” (EMBO Reports, 2016).

Common to all, as to assay: pull-down; GST pull-down: 20 μg GST-tagged protein and increasing amounts of untagged partner with glutathione Sepharose, 2 h at 4°C, 20 mM Tris pH 7.5, 150 mM NaCl, 5 mM DTT, 0.1% Tween-20; five washes; SDS–PAGE, Coomassie; both purified
Assay [1] concerns the target T1, GST-tagged C-terminally truncated Elp1 (Elp1 1–734) (S. cerevisiae) (UniProt Q06706).
T1 sequence: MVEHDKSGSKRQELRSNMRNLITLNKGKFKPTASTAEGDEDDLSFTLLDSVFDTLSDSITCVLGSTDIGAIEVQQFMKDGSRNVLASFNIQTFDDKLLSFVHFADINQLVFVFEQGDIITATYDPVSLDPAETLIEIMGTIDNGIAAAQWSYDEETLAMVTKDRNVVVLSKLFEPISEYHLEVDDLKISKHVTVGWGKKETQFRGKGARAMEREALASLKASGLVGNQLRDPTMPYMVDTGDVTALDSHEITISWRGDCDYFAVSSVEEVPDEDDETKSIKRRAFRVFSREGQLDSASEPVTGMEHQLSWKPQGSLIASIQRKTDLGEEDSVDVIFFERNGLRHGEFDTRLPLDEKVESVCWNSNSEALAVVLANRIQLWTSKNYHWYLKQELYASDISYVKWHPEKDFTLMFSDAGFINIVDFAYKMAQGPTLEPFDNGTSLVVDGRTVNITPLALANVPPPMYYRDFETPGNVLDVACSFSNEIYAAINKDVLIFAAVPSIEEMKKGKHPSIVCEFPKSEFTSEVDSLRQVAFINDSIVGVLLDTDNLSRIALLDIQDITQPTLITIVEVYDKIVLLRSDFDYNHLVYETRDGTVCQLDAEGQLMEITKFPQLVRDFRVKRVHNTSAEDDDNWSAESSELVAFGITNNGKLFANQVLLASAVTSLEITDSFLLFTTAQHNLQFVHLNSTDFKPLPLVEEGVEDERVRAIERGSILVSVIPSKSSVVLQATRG

For assay [2], the target named is T2, GST-tagged full-length Elp1 (S. cerevisiae) (UniProt Q06706).
T2 sequence: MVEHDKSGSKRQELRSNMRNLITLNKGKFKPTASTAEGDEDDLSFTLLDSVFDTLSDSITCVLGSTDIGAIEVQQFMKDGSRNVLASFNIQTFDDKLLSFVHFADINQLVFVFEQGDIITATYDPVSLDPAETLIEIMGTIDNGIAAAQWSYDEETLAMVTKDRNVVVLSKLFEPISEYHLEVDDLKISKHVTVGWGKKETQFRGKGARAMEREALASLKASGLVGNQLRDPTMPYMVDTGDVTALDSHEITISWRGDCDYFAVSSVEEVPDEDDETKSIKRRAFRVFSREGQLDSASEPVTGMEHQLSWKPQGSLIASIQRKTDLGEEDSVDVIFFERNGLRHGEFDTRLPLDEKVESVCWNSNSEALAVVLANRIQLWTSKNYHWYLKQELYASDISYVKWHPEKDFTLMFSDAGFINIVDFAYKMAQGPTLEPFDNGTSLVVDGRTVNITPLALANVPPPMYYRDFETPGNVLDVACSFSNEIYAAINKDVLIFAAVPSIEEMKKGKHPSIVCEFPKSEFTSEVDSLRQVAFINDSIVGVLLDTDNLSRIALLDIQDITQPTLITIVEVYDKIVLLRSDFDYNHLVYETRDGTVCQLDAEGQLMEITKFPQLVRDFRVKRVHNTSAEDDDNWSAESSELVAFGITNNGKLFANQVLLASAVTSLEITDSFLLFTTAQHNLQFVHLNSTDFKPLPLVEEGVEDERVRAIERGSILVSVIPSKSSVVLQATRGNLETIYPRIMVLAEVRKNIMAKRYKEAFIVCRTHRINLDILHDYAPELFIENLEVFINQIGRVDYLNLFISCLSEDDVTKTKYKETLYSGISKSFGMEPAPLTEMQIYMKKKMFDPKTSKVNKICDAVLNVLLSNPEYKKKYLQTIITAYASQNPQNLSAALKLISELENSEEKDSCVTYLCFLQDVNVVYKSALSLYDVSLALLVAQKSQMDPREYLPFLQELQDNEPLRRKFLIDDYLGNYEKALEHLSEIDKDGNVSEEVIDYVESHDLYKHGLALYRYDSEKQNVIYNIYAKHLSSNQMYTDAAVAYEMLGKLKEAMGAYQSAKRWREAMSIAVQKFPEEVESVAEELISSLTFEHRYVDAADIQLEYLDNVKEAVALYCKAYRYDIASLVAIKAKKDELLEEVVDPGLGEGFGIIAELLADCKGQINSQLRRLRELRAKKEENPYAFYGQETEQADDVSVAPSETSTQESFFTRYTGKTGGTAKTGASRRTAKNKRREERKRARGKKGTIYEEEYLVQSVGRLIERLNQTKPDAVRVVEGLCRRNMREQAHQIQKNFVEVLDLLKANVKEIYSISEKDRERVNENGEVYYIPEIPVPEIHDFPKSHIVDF

Assay [3] concerns the target T3, GST-tagged Elp3 KAT domain (aa348–557) (S. cerevisiae) (UniProt Q02908).
T3 sequence: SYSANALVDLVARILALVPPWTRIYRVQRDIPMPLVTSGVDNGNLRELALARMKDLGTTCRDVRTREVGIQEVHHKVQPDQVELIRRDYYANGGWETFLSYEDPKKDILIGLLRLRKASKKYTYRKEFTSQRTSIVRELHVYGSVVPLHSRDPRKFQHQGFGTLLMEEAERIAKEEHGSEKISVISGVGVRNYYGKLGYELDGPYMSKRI

Assay [4] has as its target T4, GST-tagged Elp3 SAM domain (aa72–389) (S. cerevisiae) (UniProt Q02908).
T4 sequence: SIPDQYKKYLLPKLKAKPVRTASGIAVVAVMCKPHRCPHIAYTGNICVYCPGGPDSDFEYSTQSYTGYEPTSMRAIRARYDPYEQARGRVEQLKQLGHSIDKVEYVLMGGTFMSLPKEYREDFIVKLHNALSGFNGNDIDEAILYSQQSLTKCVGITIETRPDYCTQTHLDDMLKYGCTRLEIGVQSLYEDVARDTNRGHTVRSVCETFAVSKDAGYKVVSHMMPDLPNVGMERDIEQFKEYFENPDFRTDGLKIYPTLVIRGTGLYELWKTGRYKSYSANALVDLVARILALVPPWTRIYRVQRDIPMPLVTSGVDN

These are yes or no findings as the source states them, for the method shown. For some of these results: Binding can be weak; no strength is given. Where a sequence is shown, tags or fusion partners need not be part of it.

In the case of “Elp4 with a deletion of the short conserved stretch at the N-terminus (S. cerevisiae) (domain or fragment)”, in assay [1], the binding result was “no binding”.

In the case of “Elp456 lacking the Elp4 loop region (aa168–233) (S. cerevisiae) (complex)”, the binding entry in assay [2] is “binds”.

As to Elp45(1–270)6 (S. cerevisiae) (complex), the values for the binding result in assay [3] and in assay [4] were “no binding” and “binds”, respectively.
